Source: article PMC9708910
No constants are given. Whether binding was seen depends on the method and setting. In cells and extracts the contact can be indirect. Some results given as binding are weak or reduced against the parent protein; the word gives no strength.

By UniProt entry, the sequences of proteins in these tests, tags left out.
UniProt Q00839: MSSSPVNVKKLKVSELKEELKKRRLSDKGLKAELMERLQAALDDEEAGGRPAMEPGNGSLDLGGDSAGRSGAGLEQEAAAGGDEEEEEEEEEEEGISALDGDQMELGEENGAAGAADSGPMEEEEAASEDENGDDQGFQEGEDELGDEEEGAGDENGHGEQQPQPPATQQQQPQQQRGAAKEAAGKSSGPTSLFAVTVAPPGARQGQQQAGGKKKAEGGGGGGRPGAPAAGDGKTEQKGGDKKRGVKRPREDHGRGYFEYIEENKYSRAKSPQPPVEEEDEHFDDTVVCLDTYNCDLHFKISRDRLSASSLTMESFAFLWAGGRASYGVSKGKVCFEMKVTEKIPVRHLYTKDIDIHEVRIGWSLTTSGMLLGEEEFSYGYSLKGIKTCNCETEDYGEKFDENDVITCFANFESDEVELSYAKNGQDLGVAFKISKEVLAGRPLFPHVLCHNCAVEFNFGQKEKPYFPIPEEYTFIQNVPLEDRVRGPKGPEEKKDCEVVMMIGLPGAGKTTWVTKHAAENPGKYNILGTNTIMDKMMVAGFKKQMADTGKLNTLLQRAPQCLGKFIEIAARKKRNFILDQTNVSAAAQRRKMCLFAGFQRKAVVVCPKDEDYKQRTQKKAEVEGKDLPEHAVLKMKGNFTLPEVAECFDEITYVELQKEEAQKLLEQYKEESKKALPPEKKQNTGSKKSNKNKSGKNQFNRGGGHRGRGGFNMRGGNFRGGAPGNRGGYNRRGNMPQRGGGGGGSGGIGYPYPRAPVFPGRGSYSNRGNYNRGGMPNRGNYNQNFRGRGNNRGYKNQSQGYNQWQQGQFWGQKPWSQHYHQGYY
UniProt Q92793: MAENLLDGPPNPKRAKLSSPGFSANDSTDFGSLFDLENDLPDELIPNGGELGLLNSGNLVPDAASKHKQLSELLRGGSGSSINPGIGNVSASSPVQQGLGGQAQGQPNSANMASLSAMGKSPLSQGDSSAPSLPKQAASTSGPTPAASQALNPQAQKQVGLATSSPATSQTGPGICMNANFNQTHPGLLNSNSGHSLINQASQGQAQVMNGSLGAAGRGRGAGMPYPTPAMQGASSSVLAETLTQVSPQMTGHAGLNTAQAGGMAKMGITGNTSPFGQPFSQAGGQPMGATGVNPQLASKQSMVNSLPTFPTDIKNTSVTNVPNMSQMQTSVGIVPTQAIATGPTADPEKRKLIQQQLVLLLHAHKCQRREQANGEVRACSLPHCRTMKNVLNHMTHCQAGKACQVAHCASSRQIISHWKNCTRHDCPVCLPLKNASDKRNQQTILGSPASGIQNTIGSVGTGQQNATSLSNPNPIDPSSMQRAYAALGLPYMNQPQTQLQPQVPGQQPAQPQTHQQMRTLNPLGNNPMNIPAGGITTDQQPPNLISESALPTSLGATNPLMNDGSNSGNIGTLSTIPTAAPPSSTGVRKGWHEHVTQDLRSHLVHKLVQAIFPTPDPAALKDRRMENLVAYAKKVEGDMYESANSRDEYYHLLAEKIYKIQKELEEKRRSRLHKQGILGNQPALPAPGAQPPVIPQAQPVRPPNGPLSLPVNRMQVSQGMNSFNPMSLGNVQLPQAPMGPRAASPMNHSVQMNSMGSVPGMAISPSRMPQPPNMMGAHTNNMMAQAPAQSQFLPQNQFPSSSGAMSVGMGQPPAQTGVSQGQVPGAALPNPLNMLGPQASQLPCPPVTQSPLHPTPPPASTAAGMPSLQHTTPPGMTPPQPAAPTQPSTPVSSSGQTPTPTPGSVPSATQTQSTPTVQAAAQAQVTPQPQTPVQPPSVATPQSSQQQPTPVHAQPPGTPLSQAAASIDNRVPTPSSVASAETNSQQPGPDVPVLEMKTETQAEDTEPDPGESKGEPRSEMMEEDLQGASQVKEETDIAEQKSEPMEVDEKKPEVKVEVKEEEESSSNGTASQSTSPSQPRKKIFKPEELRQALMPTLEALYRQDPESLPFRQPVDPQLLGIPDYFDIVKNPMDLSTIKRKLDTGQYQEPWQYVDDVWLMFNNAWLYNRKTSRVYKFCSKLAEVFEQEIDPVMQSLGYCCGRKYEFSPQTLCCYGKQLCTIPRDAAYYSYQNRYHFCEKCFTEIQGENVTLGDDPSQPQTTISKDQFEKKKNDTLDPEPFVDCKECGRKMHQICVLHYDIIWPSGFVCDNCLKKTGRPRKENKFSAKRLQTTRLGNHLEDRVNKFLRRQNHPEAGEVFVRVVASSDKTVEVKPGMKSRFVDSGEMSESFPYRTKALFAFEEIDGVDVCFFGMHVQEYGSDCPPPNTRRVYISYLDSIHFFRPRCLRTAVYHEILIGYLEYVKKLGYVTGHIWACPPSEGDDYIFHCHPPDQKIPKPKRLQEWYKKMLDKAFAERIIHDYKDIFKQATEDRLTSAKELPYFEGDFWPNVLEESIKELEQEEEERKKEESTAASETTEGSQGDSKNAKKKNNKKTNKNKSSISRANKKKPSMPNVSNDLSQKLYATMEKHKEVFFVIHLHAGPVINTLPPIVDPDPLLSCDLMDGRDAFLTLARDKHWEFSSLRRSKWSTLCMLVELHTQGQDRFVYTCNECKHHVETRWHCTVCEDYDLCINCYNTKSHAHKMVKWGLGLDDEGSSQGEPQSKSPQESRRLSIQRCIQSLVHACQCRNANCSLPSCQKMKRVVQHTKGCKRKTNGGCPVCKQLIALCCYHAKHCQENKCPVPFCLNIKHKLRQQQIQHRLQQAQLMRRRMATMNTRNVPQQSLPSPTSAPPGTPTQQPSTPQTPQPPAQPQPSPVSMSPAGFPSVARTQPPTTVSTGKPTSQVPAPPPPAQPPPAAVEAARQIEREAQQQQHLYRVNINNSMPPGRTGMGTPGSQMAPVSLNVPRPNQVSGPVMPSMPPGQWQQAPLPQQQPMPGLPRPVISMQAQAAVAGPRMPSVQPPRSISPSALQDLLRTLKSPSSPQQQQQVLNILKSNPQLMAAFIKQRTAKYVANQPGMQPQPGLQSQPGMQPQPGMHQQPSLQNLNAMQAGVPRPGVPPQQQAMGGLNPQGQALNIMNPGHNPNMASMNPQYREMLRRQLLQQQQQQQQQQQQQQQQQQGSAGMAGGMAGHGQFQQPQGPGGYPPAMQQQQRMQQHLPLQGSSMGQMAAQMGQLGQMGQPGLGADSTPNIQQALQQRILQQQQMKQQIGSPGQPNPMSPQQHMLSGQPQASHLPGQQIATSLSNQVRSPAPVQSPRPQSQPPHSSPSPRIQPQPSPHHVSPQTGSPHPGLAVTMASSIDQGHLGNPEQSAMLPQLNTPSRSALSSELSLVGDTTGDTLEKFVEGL

Target: heterogeneous nuclear ribonucleoprotein U (human (endogenous in Tfh cells)) (UniProt Q00839)
Assay: co-IP; Tfh cells lysed with RIPA buffer; anti-hnRNPU antibody (1:100) and anti-CBP antibody (1:100) used to immunoprecipitate hnRNPU and CBP, respectively; Co-IP assay kit (Thermo Fisher Scientific); detection by western blotting

binding: binds
Substance: CREB-binding protein (from UniProt Q92793 1-2442)
